According to the supplement of paper PMC12823440, “Inhibitors supercharge kinase turnover through native proteolytic circuits” (Nature, 2025):
The other results are listed elsewhere or left out. Hit calls seldom repeat between salt and free forms of one compound.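 Kinases, fused to nanoluciferase, were expressed in K562 cells; luminescence was measured every 4 h from 2 to 18 h as percent of control (DMSO = 100%, positive control = 0%). A time point is decreased if signal falls significantly (2 sigma). Hits were called by the authors by a rule that is not shown; the count of time points alone does not decide it.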

Protein sequences, listed by entry. Tags and fused reporters are not part of them. Lines headed by an entry give the natural chain unless they say otherwise; changes in a name come on top.
UniProt Q06187: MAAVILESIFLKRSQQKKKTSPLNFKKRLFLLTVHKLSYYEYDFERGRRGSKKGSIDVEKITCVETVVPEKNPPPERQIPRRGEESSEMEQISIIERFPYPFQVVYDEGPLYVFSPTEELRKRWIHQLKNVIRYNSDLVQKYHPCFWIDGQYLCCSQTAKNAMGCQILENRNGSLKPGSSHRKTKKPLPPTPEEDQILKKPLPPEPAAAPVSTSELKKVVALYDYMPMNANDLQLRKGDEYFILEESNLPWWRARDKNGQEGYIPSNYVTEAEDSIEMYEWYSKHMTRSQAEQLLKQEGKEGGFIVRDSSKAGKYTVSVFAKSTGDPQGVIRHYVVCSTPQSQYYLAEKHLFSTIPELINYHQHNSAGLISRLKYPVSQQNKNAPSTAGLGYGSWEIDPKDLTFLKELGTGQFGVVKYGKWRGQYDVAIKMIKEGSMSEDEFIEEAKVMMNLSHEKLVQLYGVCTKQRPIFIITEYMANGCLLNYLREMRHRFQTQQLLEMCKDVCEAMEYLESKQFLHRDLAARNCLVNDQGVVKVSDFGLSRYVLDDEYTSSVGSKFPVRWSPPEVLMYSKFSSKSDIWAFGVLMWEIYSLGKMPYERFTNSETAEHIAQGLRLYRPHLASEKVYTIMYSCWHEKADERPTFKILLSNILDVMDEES
UniProt Q13555: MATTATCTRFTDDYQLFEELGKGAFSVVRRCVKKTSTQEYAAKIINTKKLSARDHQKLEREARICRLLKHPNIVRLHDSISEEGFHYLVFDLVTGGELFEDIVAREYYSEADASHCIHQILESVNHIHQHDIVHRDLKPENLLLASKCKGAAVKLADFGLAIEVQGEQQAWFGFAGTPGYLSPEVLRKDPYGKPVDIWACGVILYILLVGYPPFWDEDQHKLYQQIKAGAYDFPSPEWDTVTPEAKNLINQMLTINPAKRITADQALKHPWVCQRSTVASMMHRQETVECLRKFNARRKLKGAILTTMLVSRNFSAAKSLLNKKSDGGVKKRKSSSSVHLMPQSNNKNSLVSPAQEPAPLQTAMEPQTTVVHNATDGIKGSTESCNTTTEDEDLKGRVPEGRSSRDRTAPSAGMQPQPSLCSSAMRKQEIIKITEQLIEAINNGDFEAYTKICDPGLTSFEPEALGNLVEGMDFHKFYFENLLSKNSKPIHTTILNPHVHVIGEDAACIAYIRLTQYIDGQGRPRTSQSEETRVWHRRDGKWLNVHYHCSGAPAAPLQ
UniProt Q15131: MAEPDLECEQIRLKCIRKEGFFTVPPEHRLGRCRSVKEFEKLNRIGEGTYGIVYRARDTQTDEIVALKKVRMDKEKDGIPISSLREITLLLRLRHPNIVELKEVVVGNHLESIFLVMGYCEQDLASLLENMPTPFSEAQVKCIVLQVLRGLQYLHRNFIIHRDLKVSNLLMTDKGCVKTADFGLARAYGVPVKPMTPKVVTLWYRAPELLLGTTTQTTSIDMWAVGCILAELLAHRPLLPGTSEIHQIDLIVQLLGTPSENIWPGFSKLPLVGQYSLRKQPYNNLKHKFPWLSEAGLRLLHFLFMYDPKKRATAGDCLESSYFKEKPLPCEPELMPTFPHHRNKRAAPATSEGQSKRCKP
UniProt Q00526: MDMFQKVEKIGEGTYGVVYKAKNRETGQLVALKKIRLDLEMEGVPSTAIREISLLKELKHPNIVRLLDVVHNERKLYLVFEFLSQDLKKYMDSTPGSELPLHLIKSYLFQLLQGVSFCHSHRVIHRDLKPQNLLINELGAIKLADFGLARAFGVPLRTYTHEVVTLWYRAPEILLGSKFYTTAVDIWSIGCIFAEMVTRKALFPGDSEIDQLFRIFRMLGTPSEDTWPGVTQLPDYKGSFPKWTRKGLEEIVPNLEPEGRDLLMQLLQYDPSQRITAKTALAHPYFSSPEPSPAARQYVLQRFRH
UniProt P11802: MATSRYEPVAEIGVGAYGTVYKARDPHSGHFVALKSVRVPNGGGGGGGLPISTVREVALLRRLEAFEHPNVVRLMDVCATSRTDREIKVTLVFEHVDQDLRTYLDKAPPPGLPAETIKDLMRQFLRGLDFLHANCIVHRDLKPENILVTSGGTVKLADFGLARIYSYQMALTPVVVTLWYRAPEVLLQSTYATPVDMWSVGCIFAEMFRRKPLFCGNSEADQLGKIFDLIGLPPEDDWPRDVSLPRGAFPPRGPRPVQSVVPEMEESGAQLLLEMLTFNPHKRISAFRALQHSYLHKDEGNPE
UniProt Q00535, whole entry, looked up: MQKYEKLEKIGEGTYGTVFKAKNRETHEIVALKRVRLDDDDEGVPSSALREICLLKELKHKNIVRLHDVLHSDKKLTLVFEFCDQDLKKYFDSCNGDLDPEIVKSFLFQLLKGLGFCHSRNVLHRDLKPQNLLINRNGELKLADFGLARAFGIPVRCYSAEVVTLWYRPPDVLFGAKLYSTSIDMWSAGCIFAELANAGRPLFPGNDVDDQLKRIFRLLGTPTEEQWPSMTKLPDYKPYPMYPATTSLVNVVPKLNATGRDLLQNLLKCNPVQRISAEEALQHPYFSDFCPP
UniProt Q00534, whole entry: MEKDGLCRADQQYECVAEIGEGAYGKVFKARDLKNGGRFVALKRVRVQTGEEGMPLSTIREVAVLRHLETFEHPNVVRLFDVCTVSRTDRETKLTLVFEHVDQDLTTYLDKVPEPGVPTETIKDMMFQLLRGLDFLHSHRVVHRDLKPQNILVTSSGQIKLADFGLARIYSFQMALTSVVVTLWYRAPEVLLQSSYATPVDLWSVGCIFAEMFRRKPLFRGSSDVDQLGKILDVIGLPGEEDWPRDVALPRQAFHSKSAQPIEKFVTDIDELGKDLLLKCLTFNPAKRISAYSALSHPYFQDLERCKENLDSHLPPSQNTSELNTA
UniProt P50613: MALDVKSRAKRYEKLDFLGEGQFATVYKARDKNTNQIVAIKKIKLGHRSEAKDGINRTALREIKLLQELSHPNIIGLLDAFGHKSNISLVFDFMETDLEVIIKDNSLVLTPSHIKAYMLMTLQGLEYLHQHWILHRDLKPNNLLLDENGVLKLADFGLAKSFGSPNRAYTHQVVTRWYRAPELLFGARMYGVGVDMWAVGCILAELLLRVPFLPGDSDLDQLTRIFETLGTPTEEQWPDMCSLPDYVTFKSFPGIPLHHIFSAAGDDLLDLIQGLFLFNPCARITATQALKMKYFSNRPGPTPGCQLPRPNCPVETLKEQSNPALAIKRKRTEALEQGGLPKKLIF
UniProt P50750, whole entry: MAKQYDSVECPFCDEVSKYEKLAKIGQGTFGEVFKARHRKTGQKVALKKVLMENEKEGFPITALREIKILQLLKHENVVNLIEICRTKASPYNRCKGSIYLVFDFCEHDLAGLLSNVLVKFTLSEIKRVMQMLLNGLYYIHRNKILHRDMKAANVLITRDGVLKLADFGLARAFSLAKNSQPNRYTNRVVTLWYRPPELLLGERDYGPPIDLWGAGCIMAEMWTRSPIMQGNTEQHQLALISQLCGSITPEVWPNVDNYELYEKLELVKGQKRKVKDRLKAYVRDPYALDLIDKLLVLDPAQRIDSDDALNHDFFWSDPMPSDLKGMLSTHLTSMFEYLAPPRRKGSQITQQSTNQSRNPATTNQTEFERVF
UniProt O96017, whole entry: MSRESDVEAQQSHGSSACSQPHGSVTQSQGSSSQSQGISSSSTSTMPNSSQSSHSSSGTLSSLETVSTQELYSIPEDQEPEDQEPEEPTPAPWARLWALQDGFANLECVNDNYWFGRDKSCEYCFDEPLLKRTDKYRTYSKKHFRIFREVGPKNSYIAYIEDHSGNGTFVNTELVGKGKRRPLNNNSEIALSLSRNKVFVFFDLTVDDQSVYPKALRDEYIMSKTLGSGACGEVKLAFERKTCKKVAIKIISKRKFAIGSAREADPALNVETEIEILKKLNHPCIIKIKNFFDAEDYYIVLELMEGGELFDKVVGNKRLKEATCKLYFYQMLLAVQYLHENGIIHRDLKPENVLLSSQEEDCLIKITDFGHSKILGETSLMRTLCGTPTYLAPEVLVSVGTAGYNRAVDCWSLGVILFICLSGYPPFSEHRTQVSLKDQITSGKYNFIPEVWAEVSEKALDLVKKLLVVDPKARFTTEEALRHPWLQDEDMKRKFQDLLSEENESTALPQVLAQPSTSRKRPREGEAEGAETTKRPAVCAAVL
UniProt P41240: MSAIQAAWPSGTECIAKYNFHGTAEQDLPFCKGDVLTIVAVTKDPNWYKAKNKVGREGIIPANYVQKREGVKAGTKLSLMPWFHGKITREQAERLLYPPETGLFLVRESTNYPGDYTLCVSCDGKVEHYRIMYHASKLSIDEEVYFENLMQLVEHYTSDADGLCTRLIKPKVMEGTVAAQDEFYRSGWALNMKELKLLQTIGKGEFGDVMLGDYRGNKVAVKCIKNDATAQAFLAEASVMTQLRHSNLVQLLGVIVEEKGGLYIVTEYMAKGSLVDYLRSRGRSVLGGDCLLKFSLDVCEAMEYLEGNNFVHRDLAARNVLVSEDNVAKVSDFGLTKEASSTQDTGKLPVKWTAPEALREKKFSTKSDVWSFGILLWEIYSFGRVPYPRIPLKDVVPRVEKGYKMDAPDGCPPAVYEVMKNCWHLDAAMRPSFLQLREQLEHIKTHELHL
UniProt P48729: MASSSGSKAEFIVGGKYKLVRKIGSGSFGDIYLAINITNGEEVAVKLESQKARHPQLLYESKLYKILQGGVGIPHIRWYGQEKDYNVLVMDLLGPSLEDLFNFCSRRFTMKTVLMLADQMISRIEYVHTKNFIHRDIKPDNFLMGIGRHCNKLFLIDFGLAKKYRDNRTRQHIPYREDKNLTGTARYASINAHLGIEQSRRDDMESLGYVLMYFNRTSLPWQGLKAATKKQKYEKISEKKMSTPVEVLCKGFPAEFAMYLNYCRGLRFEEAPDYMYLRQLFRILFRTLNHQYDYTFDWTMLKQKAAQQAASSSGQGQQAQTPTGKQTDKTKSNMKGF
UniProt P48730: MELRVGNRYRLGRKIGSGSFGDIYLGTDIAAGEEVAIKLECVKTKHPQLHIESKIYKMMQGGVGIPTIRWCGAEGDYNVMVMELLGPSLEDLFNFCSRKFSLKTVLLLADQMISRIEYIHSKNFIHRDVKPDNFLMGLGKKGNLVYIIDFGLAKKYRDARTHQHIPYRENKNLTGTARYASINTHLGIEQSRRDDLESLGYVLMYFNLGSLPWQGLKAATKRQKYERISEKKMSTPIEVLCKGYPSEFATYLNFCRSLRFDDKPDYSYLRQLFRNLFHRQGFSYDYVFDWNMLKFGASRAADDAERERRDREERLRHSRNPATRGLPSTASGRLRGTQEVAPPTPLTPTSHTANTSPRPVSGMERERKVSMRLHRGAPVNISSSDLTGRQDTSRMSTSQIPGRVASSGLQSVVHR
UniProt Q9Y463, whole entry, looked up: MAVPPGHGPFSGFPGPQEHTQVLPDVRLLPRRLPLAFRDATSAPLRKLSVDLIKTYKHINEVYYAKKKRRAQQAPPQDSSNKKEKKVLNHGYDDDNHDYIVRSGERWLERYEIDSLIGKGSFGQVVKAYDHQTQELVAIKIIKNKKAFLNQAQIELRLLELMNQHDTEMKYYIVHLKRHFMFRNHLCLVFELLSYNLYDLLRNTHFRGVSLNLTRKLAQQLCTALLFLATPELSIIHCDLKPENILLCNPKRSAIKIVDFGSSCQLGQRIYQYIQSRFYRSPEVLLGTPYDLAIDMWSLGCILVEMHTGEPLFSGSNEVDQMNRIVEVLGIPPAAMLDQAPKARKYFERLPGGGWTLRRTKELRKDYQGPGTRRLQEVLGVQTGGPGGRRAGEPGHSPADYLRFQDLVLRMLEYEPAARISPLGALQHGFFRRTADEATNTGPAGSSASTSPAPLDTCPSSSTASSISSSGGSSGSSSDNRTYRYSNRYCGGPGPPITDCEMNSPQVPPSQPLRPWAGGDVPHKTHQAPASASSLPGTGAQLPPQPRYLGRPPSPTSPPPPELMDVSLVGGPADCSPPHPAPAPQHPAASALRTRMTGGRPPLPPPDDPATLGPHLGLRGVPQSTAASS
UniProt Q92630: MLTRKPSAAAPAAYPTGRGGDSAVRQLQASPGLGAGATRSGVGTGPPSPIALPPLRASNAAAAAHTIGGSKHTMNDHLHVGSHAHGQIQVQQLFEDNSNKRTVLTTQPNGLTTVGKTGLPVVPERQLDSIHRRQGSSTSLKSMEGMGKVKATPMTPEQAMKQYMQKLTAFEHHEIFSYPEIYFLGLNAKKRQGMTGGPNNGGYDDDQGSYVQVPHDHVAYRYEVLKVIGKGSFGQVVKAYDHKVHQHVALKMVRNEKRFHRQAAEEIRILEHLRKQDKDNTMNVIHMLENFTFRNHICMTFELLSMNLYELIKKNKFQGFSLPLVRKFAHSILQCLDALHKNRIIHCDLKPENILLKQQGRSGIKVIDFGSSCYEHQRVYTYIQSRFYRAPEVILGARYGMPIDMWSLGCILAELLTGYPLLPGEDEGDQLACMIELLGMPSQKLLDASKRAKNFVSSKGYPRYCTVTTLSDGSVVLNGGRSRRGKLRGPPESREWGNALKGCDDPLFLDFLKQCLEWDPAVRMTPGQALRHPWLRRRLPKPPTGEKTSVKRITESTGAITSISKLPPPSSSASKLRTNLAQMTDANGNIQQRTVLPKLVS

Experiments:
Test in all cases: kinase-Nluc reporter destabilization hit call (1 = scored as downregulated) (binary); higher = compound decreases kinase abundance
Conditions in all cases: K562; 2-18 h
[1] = system: BRAF_V600E
[2] = biological target: BTK (UniProt Q06187)
[3] = biological target: CAMK2A (UniProt Q9UQM7)
[4] = biological target: CAMK2G (UniProt Q13555)
[5] = biological target: CDK10 (UniProt Q15131)
[6] = biological target: CDK2 (UniProt P24941)
[7] = biological target: CDK3 (UniProt Q00526)
[8] = biological target: CDK4 (UniProt P11802)
[9] = biological target: CDK5 (UniProt Q00535)
[10] = biological target: CDK6 (UniProt Q00534)
[11] = biological target: CDK7 (UniProt P50613)
[12] = biological target: CDK9 (UniProt P50750)
[13] = biological target: CHEK2 (UniProt O96017)
[14] = biological target: CSF1R (UniProt P07333)
[15] = biological target: CSK (UniProt P41240)
[16] = biological target: CSNK1A1 (UniProt P48729)
[17] = biological target: CSNK1D (UniProt P48730)
[18] = biological target: DDR1 (UniProt Q08345)
[19] = biological target: DYRK1B (UniProt Q9Y463)
[20] = biological target: DYRK2 (UniProt Q92630)

SMILES	kinase-Nluc reporter destabilization hit call [1]	kinase-Nluc reporter destabilization hit call [2]	kinase-Nluc reporter destabilization hit call [3]	kinase-Nluc reporter destabilization hit call [4]	kinase-Nluc reporter destabilization hit call [5]	kinase-Nluc reporter destabilization hit call [6]	kinase-Nluc reporter destabilization hit call [7]	kinase-Nluc reporter destabilization hit call [8]	kinase-Nluc reporter destabilization hit call [9]	kinase-Nluc reporter destabilization hit call [10]	kinase-Nluc reporter destabilization hit call [11]	kinase-Nluc reporter destabilization hit call [12]	kinase-Nluc reporter destabilization hit call [13]	kinase-Nluc reporter destabilization hit call [14]	kinase-Nluc reporter destabilization hit call [15]	kinase-Nluc reporter destabilization hit call [16]	kinase-Nluc reporter destabilization hit call [17]	kinase-Nluc reporter destabilization hit call [18]	kinase-Nluc reporter destabilization hit call [19]	kinase-Nluc reporter destabilization hit call [20]
CN1C(=O)[C@@H](NC(=O)c2n[nH]c(Cc3ccccc3)n2)COc2ccccc21 (10 µM)	inactive: 0	inactive: 0	inactive: 0	inactive: 0	inactive: 0	inactive: 0	inactive: 0	inactive: 0	inactive: 0	inactive: 0	inactive: 0	inactive: 0	inactive: 0	inactive: 0	inactive: 0	inactive: 0	inactive: 0	inactive: 0	inactive: 0	inactive: 0
COCCNc1cc(NC(=O)N2CCCc3cc(CN4CCN(C)CC4=O)c(C=O)nc32)ncc1C#N [Roblitinib] (10 µM)	inactive: 0	inactive: 0	inactive: 0	inactive: 0	inactive: 0	inactive: 0	inactive: 0	inactive: 0	inactive: 0	inactive: 0	inactive: 0	inactive: 0	inactive: 0	inactive: 0	inactive: 0	inactive: 0	inactive: 0	inactive: 0	inactive: 0	inactive: 0
COc1cc(-c2cn[nH]c2)ccc1C(=O)Nc1ccc2c(c1)CCNCC2 (10 µM)	inactive: 0	inactive: 0	inactive: 0	inactive: 0	inactive: 0	inactive: 0	inactive: 0	inactive: 0	inactive: 0	inactive: 0	inactive: 0	inactive: 0	inactive: 0	inactive: 0	inactive: 0	inactive: 0	inactive: 0	inactive: 0	inactive: 0	inactive: 0
Nc1n[nH]c2nc(-c3ccc(NS(=O)(=O)c4cc(Cl)ccc4F)cc3)cnc12 (10 µM)	inactive: 0	inactive: 0	inactive: 0	inactive: 0	active: 1	inactive: 0	inactive: 0	inactive: 0	inactive: 0	inactive: 0	inactive: 0	inactive: 0	inactive: 0	inactive: 0	inactive: 0	inactive: 0	inactive: 0	active: 1	inactive: 0	inactive: 0
COc1cc(N2CCOCC2)ccc1NC(=O)c1csc(-c2cccnc2)n1 [IRAK inhibitor 6] (10 µM)	inactive: 0	inactive: 0	inactive: 0	inactive: 0	inactive: 0	inactive: 0	inactive: 0	inactive: 0	inactive: 0	inactive: 0	inactive: 0	inactive: 0	inactive: 0	inactive: 0	inactive: 0	inactive: 0	inactive: 0	inactive: 0	inactive: 0	inactive: 0
CC(C)(O)[C@H]1CC[C@H](Nc2ccc3ncc(-c4cccc(C(F)(F)F)c4)n3n2)CC1 (10 µM)	inactive: 0	inactive: 0	inactive: 0	inactive: 0	inactive: 0	inactive: 0	inactive: 0	inactive: 0	inactive: 0	inactive: 0	inactive: 0	inactive: 0	inactive: 0	inactive: 0	inactive: 0	inactive: 0	inactive: 0	inactive: 0	inactive: 0	inactive: 0
C=CCc1ccc(O)c(-c2ccc(O)c(CC=C)c2)c1 [Honokiol] (10 µM)	inactive: 0	inactive: 0	inactive: 0	inactive: 0	inactive: 0	inactive: 0	inactive: 0	inactive: 0	inactive: 0	inactive: 0	inactive: 0	inactive: 0	inactive: 0	inactive: 0	inactive: 0	inactive: 0	inactive: 0	inactive: 0	inactive: 0	inactive: 0
C=CC(=O)N1C(=O)CC(c2ccc(F)cc2)Sc2ccccc21 (stereo not drawn) [GSK-3β inhibitor 3] (10 µM)	inactive: 0	inactive: 0	inactive: 0	inactive: 0	inactive: 0	inactive: 0	inactive: 0	inactive: 0	inactive: 0	inactive: 0	inactive: 0	inactive: 0	inactive: 0	inactive: 0	inactive: 0	inactive: 0	inactive: 0	inactive: 0	inactive: 0	inactive: 0
Nc1ncnc2c1c(COc1cccc(Cl)c1)nn2C1CCOCC1 (10 µM)	inactive: 0	inactive: 0	inactive: 0	inactive: 0	inactive: 0	inactive: 0	inactive: 0	inactive: 0	inactive: 0	inactive: 0	inactive: 0	inactive: 0	inactive: 0	inactive: 0	inactive: 0	inactive: 0	inactive: 0	inactive: 0	inactive: 0	inactive: 0
